Reference: PubChem BioAssay AID2685 (National Center for Advancing Translational Sciences (NCATS), 2010)
This is one part of the list. Further columns of the screen follow, without active or inactive calls. The list favours compounds with an active or inconclusive main result. Words in brackets tell the shape of the fitted curve; partial curves, single points and poor fits give uncertain potencies.

Test: qHTS Assay for Lipid Storage Modulators in Drosophila S3 Cells;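 as to cell number change: cells counted by Cell Tracker Red CMTPX staining in the red channel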
Conditions: BODIPY lipid droplet fluorescence, 18-24 h; for cell number change: measured here: cell count max response, cells fed with added oleic acid
Procedure, shortened: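 Drosophila S3 cells loaded with oleic acid (400 uM, as added) and compounds at several concentrations; lipid droplets imaged by 488-nm laser-scanning cytometry, 500–530 nm intensity and object ratio to cell channel. Percent activity normalized to 20 uM Triacsin C.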

[1] = measured here: lipid fluorescence (Fed channel) AC50, cells fed with added oleic acid
[2] = measured here: cell number channel AC50, cells fed with added oleic acid

SMILES	cell number change	AC50 [1]	AC50 [2]
COC1=CC(=O)CC(C)C12Oc1cc(OC)cc(OC)c1C2=O (stereo not drawn)	0.161%	0.0259 µM [falling, full curve, poor fit]	–
COc1cc2c(cc1OC)CN(C(=S)NC(=O)c1ccccc1)CC2	-45.3%	14.6 µM [falling, partial curve, poor fit]	2.59 µM [falling, full curve]
CNC(=O)c1c(NC(=O)C2=COCCO2)sc2c1CCCC2	-11.8%	32.6 µM [falling, single point]	–
CCCCCCCNC1=CC(=O)CC(c2ccco2)C1 (stereo not drawn)	-17.4%	20.6 µM [falling, single point]	–
Cc1ccccc1OCCC(=O)OCC(=O)NCCc1ccc(S(N)(=O)=O)cc1	-11.4%	0.206 µM [falling, full curve, poor fit]	–
CCOC(=O)[C@H]1[C@H]2COc3ccc(Br)cc3[C@@H]2N2C(=O)CN(Cc3ccccc3)C(=O)[C@@]12C	-1.62%	9.2 µM [falling, single point]	–
Cc1ccc(C(=O)O/N=C/c2c(C(F)(F)F)nn(C)c2Sc2ccc(Cl)cc2)cc1	35.7%	0.517 µM [falling, single point]	9.2 µM [rising, partial curve]
O=C(NCCc1ccccc1)C(=S)N1CCCCC1	7.54%	0.00517 µM [falling, full curve, poor fit]	6.51 µM [falling, single point]
O=C(O)C(Cc1c[nH]c2ccccc12)NS(=O)(=O)c1ccc(Cl)cc1 (stereo not drawn)	-31.7%	0.013 µM [falling, full curve, poor fit]	0.00461 µM [falling, full curve, poor fit]
O=C(Nc1nccs1)c1cn(-c2ccccc2)nc1-c1ccncc1	-39.7%	–	–
CCOC(=O)c1ccc(N2C(=O)Cc3ccccc3C2=O)cc1	-1.9%	–	–
COc1ccc([N+](=O)[O-])cc1NC(=O)CSCc1ccc(Br)cc1	6.33%	3.66 µM [rising, partial curve, poor fit]	–
COc1ccc(-c2nnc(SCC(=O)Nc3ccc4c(c3)OCCO4)n2N)cc1OC	-2.07%	–	–
O=C(C[n+]1cccc(C(=O)N/N=C/c2cccc([N+](=O)[O-])c2)c1)c1ccccc1	-6.73%	–	–
CCCn1c(-c2ccc(F)cc2)cnc1SCC(=O)O	-79.5%	–	20.6 µM [falling, single point]
COc1ccccc1N1CCN(C(=O)CSc2nnc3n2C(C)(C)Cc2ccccc2-3)CC1	-16.1%	0.731 µM [rising, full curve, poor fit]	–
Cc1ccccc1NC(=O)COC(=O)c1ccc2nc(C)c(C)nc2c1	52.7%	–	32.6 µM [rising, single point]
COc1cc2c(C(=O)N3CCN(C4CCCCC4)CC3)cn(CC(C)C)c(=O)c2cc1OC	-0.84%	0.731 µM [rising, single point]	–
CNC(=O)c1ccc(Nc2nnc(-c3ccc(C)c(S(=O)(=O)NCC4CCCO4)c3)c3ccccc23)cc1 (stereo not drawn)	25.5%	20.6 µM [rising, single point]	–
COc1cc2c(cc1OC)C(NC(=O)C(F)(F)F)C/C2=N\O (stereo not drawn)	18.5%	–	–

Nothing new here: an excerpt of the list.
SMILES	cell number change	AC50 [1]	AC50 [2]
COC1=CC(=O)CC(C)C12Oc1cc(OC)cc(OC)c1C2=O (stereo not drawn)	0.161%	0.0259 µM [falling, full curve, poor fit]	–
COc1cc2c(cc1OC)CN(C(=S)NC(=O)c1ccccc1)CC2	-45.3%	14.6 µM [falling, partial curve, poor fit]	2.59 µM [falling, full curve]
CNC(=O)c1c(NC(=O)C2=COCCO2)sc2c1CCCC2	-11.8%	32.6 µM [falling, single point]	–
CCCCCCCNC1=CC(=O)CC(c2ccco2)C1 (stereo not drawn)	-17.4%	20.6 µM [falling, single point]	–
Cc1ccccc1OCCC(=O)OCC(=O)NCCc1ccc(S(N)(=O)=O)cc1	-11.4%	0.206 µM [falling, full curve, poor fit]	–
CCOC(=O)[C@H]1[C@H]2COc3ccc(Br)cc3[C@@H]2N2C(=O)CN(Cc3ccccc3)C(=O)[C@@]12C	-1.62%	9.2 µM [falling, single point]	–
Cc1ccc(C(=O)O/N=C/c2c(C(F)(F)F)nn(C)c2Sc2ccc(Cl)cc2)cc1	35.7%	0.517 µM [falling, single point]	9.2 µM [rising, partial curve]
O=C(NCCc1ccccc1)C(=S)N1CCCCC1	7.54%	0.00517 µM [falling, full curve, poor fit]	6.51 µM [falling, single point]
O=C(O)C(Cc1c[nH]c2ccccc12)NS(=O)(=O)c1ccc(Cl)cc1 (stereo not drawn)	-31.7%	0.013 µM [falling, full curve, poor fit]	0.00461 µM [falling, full curve, poor fit]
O=C(Nc1nccs1)c1cn(-c2ccccc2)nc1-c1ccncc1	-39.7%	–	–
CCOC(=O)c1ccc(N2C(=O)Cc3ccccc3C2=O)cc1	-1.9%	–	–
COc1ccc([N+](=O)[O-])cc1NC(=O)CSCc1ccc(Br)cc1	6.33%	3.66 µM [rising, partial curve, poor fit]	–
COc1ccc(-c2nnc(SCC(=O)Nc3ccc4c(c3)OCCO4)n2N)cc1OC	-2.07%	–	–
O=C(C[n+]1cccc(C(=O)N/N=C/c2cccc([N+](=O)[O-])c2)c1)c1ccccc1	-6.73%	–	–
CCCn1c(-c2ccc(F)cc2)cnc1SCC(=O)O	-79.5%	–	20.6 µM [falling, single point]
COc1ccccc1N1CCN(C(=O)CSc2nnc3n2C(C)(C)Cc2ccccc2-3)CC1	-16.1%	0.731 µM [rising, full curve, poor fit]	–
Cc1ccccc1NC(=O)COC(=O)c1ccc2nc(C)c(C)nc2c1	52.7%	–	32.6 µM [rising, single point]

Carrying on.

SMILES	cell number change	AC50 [1]	AC50 [2]
CCN(CC(=O)Nc1ccc(C)c(F)c1)CC(=O)NC(C)(C)C	33.3%	14.6 µM [rising, single point]	6.51 µM [rising, full curve, poor fit]
O=C(O)CC(Sc1n[nH]c(=S)s1)C(=O)O (stereo not drawn)	30.5%	–	1.64 µM [rising, full curve, poor fit]
COC(=O)CN=Cc1c(O)n(-c2ccc(Cl)cn2)c(=O)c2ccccc12	33.6%	–	–
CN(C)S(=O)(=O)c1ccc(SCC(=O)Nc2ccc3c(c2)OCCO3)nc1	17.7%	–	–
CC(C(=O)N1CCCC1)N1CCN(c2ccccc2O)CC1 (stereo not drawn)	–	–	0.092 µM [rising, partial curve, poor fit]
CCCCNC(=O)CSc1nc2cc(OC)c(OC)cc2c(=O)n1Cc1ccc(OC)cc1	-11.4%	–	–
CCC(C)NC(=O)CCC(=O)NNc1nc2ccccc2c2nc(C)nn12 (stereo not drawn)	-26.6%	1.84 µM [rising, partial curve]	3.66 µM [falling, full curve, poor fit]
CCOC(=O)c1ccc2nc(C)c(CC)c(Cl)c2c1	-9.23%	0.164 µM [rising, full curve, poor fit]	–
Cc1ccc(C2=NS(=O)(=O)N(C)C(C(=O)NCc3cccs3)=C2)cc1	-0.576%	0.0259 µM [falling, full curve, poor fit]	–
COC(=O)c1c(NC(=O)CC2SC(N)=NC2=O)sc2c1CCC(C(C)(C)C)C2 (stereo not drawn)	-86.9%	25.9 µM [falling, partial curve]	1.64 µM [falling, full curve]
COC(=O)Nc1ccc(NC(C)=O)cc1	-6.85%	29.1 µM [falling, single point]	–
CCOc1ccc(NS(=O)(=O)c2ccc(NS(=O)(=O)c3ccccc3)cc2)cc1	-1.32%	1.46 µM [rising, full curve, poor fit]	–
CC1(C)CC(=O)C2=C(C1)N(c1ccc(Cl)cc1)C(=O)C2(O)C(F)(F)F (stereo not drawn)	-12.5%	0.461 µM [falling, single point]	–
CCOC(=O)C(=O)N=Nc1c(O)[nH]c2ccccc12	2.7%	0.116 µM [falling, single point]	–
CCOc1ccccc1CSc1nc2ccccc2[nH]1	18.6%	11.6 µM [rising, single point]	–
C/C(=N/NC(=O)c1ccoc1C)c1ccc(NC(=O)c2ccncc2)cc1	32.9%	29.1 µM [rising, partial curve, poor fit]	2.06 µM [rising, full curve, poor fit]
CC1(C)CCC(=O)N2CC[C@H]3C[C@H](OC(=O)Nc4ccc(Br)cc4)C[C@@H]1[C@H]32	-8.98%	0.82 µM [falling, partial curve, poor fit]	–
S=C(c1ccccc1)N1CCCC1	8.99%	0.651 µM [rising, full curve, poor fit]	–
O=S(=O)(c1ccc(SCc2ccccc2)nc1)N1CCCCC1	-4.82%	–	4.61 µM [falling, partial curve]
CCS(=O)(=O)c1nc(S(=O)(=O)c2ccc(C)cc2)c(N2CCOCC2)s1	2.85%	0.58 µM [falling, single point]	–

SMILES	cell number change	AC50 [1]	AC50 [2]
CC1(NC(=O)C2CCCCC2)CCS(=O)(=O)C1 (stereo not drawn)	-31.1%	–	–
CN(CCc1ccccn1)C(=O)c1ccc(OC2CCN(Cc3ccccn3)CC2)cc1	-2.55%	–	6.51 µM [rising, single point]
O=C(NCC1CCCO1)C1C2C=CC3(CN(Cc4cccs4)C(=O)C13)O2 (stereo not drawn)	-1.7%	29.1 µM [falling, single point]	–
COc1ccccc1C1C(C#N)=C(N)N(N(C)C)C2=C1C(=O)CC(C)(C)C2 (stereo not drawn)	-8.33%	29.1 µM [rising, single point]	–
CCOC(=O)c1cccc(NC(=O)CSc2nnnn2CC)c1	-13.3%	–	6.51 µM [rising, single point]
N#CC(C(=O)OC1CCCCC1)c1nc2ccccc2nc1N1CCCCC1 (stereo not drawn)	8.27%	–	–
COc1ccc(Cl)cc1NC(=O)Cn1nnc(C(=O)NCc2ccc3c(c2)OCO3)c1N	8.36%	7.31 µM [falling, partial curve, poor fit]	–
O=C(NCc1ccco1)c1cccc(S(=O)(=O)N2CCCC2)c1	0.952%	29.1 µM [rising, partial curve, poor fit]	–
CCCc1c(C(=O)N/N=C/C(C)=C/c2ccco2)nnn1-c1nonc1N	5.67%	29.1 µM [falling, single point]	–
O=C(NCc1ccc(F)cc1)C1(S(=O)(=O)c2ccc(Cl)cc2)CC1	-6.67%	29.1 µM [rising, single point]	–
CC(C)(C)c1ccc(OCC(=O)N(Cc2cccs2)C2CCS(=O)(=O)C2)cc1 (stereo not drawn)	-3.46%	29.1 µM [falling, single point]	–
CCCOc1ccc(NC2=CC(=O)CC(C)(C)C2)cc1	49.5%	14.6 µM [rising, partial curve]	7.31 µM [rising, partial curve, poor fit]
COc1ccccc1N1CCN(C2CC(=O)N(c3cccc(Br)c3)C2=O)CC1 (stereo not drawn)	-8.47%	–	–
CCOC(=O)Nc1ccc(C(N)=O)cc1	2.23%	–	0.103 µM [falling, full curve, poor fit]
Cc1noc(C)c1S(=O)(=O)N(CC(=O)Nc1ccc2c(c1)OCCO2)c1ccc(C(C)C)cc1	4.09%	25.9 µM [falling, single point]	–
COc1ccc(NS(=O)(=O)c2ccc(C)c(C(=O)NNC(=O)c3ccccc3O)c2)cc1	-11.2%	0.164 µM [rising, full curve, poor fit]	–
CCc1ccc(O)c(N=Cc2cccc(C)c2O)c1	-16.7%	0.651 µM [falling, full curve]	0.116 µM [falling, full curve, poor fit]
COc1ccc(NC(=O)NNC(=O)C(C)Oc2ccc3ccccc3c2)cc1 (stereo not drawn)	18.8%	13 µM [rising, partial curve, poor fit]	–
O=S(=O)(NN1CCOCC1)c1ccc(Br)s1	2.7%	29.1 µM [falling, single point]	–
O=C(CNC(=O)c1ccc(Br)o1)NCc1ccccc1Cl	16.4%	20.6 µM [rising, single point]	–
